Data as given in PubChem BioAssay AID1671195 (Yale University, 2021).
Purpose: 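Genes whose knockdown alters LDL uptake in liver cancer cells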 (primary screen). Cell system: human Huh7 hepatoma cells. Knock-down reagent: siRNA pool against human genes, 18 nM. Timing: about 2 to 2.5 days of knockdown, then 8 h LDL uptake. Conditions: DiI-labelled LDL at 30 µg/ml for 8 h, in lipoprotein-deficient serum medium. Detection: 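Per-cell DiI-LDL intensity by automated imaging; well means scaled to the plate median and given as a robust z-score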. Direction: robust z-score: higher = more LDL uptake after knockdown. Hit rule: 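Active when two or more replicates show a robust z-score above 2 or below -2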.
The whole screen tested about 22,000 reagents; below is an unselected part. In the full data, about 1,510 (6.9%) got an active call. 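Active includes knockdowns raising or lowering LDL uptake; positive z-scores mean more uptake, negative mean less.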 Reagent sequences are not shown.

| gene symbol | robust z-score, replicate 1 | robust z-score, replicate 2 | robust z-score, replicate 3 | outcome |
| --- | --- | --- | --- | --- |
| LOC342659 (retired record) | -1.3 | -1.52 | -1.19 | inactive |
| F2 | -0.114 | -0.202 | -0.117 | inactive |
| TMEM71 | -0.852 | 0.282 | -0.285 | inactive |
| SFR1 | 0.0991 | 0.0939 | 0.0491 | inactive |
| TOR1A | -0.83 | -0.6 | -0.645 | inactive |
| RPS14 | -0.808 | -1.83 | 0.337 | inactive |
| SERPINB10 | 0.0506 | -0.601 | -0.891 | inactive |
| TOMM40 | -1.01 | -0.459 | -2.01 | inactive |
| LRP8 | -0.047 | 0.212 | -0.365 | inactive |
| LOC442624 (retired record) | 0.726 | 0.193 | -0.8 | inactive |
| TRIM72 | -1.29 | -1.27 | -0.97 | inactive |
| GRM1 | 0.48 | -0.614 | 0.73 | inactive |
| GNG4 | -0.88 | -1.08 | -0.972 | inactive |
| ERCC6L | 0.016 | -0.457 | 0.0246 | inactive |
| RGPD4 | 3.56 | 3.12 | 3.58 | active |
| MRRF | -0.319 | -1.58 | -1.27 | inactive |
| FUT6 | 0.651 | -0.0354 | 0.0534 | inactive |
| WDR37 | 0.882 | 0.902 | 1.38 | inactive |
| GP9 | 0.0917 | 0.148 | 0.39 | inactive |
| LPA | 1.67 | 1.86 | 2.21 | inactive |
| LOC441553 (retired record) | -0.774 | -1.13 | -0.945 | inactive |
| IFIT1B | -0.508 | -0.274 | 0.0232 | inactive |
| ZSWIM6 | -1.04 | -1.33 | -0.806 | inactive |
| MRPL51 | 1.8 | 1.54 | 1.5 | inactive |
| COA1 | -0.451 | -0.14 | -0.925 | inactive |
| MUC2 | -0.85 | -0.436 | -1.24 | inactive |
| PDE6C | -1.75 | -1.15 | -1.66 | inactive |
| HEATR3 | -0.441 | -0.109 | 0.516 | inactive |
| KPNA2P1 | -0.524 | -0.453 | -0.416 | inactive |
| PRDM4 | 0.347 | -0.00646 | -0.138 | inactive |
| YTHDF3 | 0.183 | 0.622 | 0.432 | inactive |
| CXCL14 | 0.36 | 0.495 | 0.401 | inactive |
| KCNC3 | -1.06 | -0.733 | -1.12 | inactive |
| RETN | -1.14 | 0.483 | 0.0777 | inactive |
| GPHB5 | -0.638 | 0.823 | -0.462 | inactive |
| PITX3 | -0.946 | -0.968 | -0.36 | inactive |
| ZNF418 | 1.21 | 0.997 | 1.82 | inactive |
| OR9G9 | 3.36 | 2.77 | 2.36 | active |
| ZNF474 | -1.01 | -1.47 | -0.627 | inactive |
| B3GAT3 | 0.774 | 1.01 | 0.416 | inactive |
| CSF3 | 2.26 | 3.64 | 2.36 | active |
| SLC14A2 | -1.66 | -1.48 | -1.84 | inactive |
| CAPNS1P1 | -0.37 | -0.636 | -0.374 | inactive |
| GPR83 | -0.705 | -1.64 | -1.35 | inactive |
| AZI2 | 0.355 | 0.15 | 1.4 | inactive |
| BCL3 | -0.498 | -1.49 | -1.43 | inactive |
| RPL41 | 1.25 | 1.52 | 1.46 | inactive |
| MIR99AHG | 0.52 | 1.21 | 0.507 | inactive |
| IL36RN | -1.05 | -0.22 | -0.573 | inactive |
| RPL10A | -1.45 | -1.75 | -1.45 | inactive |
| ZNF580 | 1.45 | 1.04 | 1.96 | inactive |
| CPLANE1 | -1.98 | -2.01 | -1.99 | active |
| ZNF574 | -1.21 | -1.65 | -1.47 | inactive |
| SLC52A2 | -0.214 | -0.372 | -0.54 | inactive |
| SPATA41 | 0.393 | 0.613 | 0.386 | inactive |
| RARB | -0.318 | -0.978 | -0.743 | inactive |
| FTMT | -1.64 | -1.34 | -0.694 | inactive |
| FAM174A | 0.295 | 0.297 | 0.309 | inactive |
| DEGS1 | -0.165 | -1.01 | -0.0123 | inactive |
| ZNF568 | 0.703 | 0.319 | 0.741 | inactive |
| DPRX | -0.481 | -1.19 | -0.837 | inactive |
| ZNF225 | 1.01 | 1.86 | 0.867 | inactive |
| LINC00691 | 0.952 | 0.617 | 0.251 | inactive |
| C1orf35 | -1.61 | -1.06 | -1.17 | inactive |
| DYRK1B | -1.72 | -1.63 | -2.01 | inactive |
| ZFAND6 | -1.18 | -0.574 | -0.224 | inactive |
| RSF1 | -0.643 | -1.27 | -0.859 | inactive |
| NAGLU | 0.424 | -0.0791 | 0.172 | inactive |
